Assay results reported in article PMC3469418, “New Partners in Regulation of Gene Expression: The Enhancer of Trithorax and Polycomb Corto Interacts with Methylated Ribosomal Protein L12 Via Its Chromodomain” (PLoS Genetics, 2012).
Results are given in words; binding and its absence hold for the method and conditions named. In cells and extracts the contact can be indirect. A result given as binding can be weak or reduced; the word gives no strength. Sequences can lack the tags named with a protein.

Molecular target: T1, FLAG-tagged full-length Corto (D. melanogaster) (UniProt P41046)
T1 sequence: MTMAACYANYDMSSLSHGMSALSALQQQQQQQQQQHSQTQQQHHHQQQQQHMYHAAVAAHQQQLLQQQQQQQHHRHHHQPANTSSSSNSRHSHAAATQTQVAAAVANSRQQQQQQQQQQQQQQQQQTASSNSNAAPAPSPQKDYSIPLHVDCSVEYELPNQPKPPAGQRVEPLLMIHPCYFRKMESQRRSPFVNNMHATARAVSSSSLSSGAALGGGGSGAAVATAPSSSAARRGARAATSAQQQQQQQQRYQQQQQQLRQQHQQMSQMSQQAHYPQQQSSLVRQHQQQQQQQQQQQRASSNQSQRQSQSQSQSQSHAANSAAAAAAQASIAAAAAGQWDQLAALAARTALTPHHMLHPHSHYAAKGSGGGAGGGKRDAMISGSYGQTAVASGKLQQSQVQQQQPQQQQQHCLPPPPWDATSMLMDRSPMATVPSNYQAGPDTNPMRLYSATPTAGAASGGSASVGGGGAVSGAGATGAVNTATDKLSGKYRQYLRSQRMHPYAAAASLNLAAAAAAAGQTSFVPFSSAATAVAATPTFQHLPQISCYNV
Test: co-IP; S2 cells co-transfected with FLAG-tagged Corto constructs and Myc-tagged ribosomal proteins; cell extracts; immunoprecipitation with anti-FLAG or anti-Myc, Western blot with the same antibodies

binding: binds
Substance: Myc-tagged RPL12 (Ribosomal Protein L12) (D. melanogaster)
